The values below come from PMC4490564, “Molecular snapshots of the Pex1/6 AAA+ complex in action” (Nature Communications, 2015).

Holding throughout (test): negative stain EM (single-particle analysis, 3D reconstruction); purified complexes at 40-50 ug/ml, incubated with ATPγS (2.5 mM), ATP (5 mM), ADP (5 mM) or ADP-AlFx, adsorbed on carbon grids, stained with 2% uranyl acetate; threefold symmetry imposed; both purified
The target in experiment [1] is T1, Pex1 (wild type, overexpressed in yeast) (yeast) (UniProt P24004).
T1 sequence: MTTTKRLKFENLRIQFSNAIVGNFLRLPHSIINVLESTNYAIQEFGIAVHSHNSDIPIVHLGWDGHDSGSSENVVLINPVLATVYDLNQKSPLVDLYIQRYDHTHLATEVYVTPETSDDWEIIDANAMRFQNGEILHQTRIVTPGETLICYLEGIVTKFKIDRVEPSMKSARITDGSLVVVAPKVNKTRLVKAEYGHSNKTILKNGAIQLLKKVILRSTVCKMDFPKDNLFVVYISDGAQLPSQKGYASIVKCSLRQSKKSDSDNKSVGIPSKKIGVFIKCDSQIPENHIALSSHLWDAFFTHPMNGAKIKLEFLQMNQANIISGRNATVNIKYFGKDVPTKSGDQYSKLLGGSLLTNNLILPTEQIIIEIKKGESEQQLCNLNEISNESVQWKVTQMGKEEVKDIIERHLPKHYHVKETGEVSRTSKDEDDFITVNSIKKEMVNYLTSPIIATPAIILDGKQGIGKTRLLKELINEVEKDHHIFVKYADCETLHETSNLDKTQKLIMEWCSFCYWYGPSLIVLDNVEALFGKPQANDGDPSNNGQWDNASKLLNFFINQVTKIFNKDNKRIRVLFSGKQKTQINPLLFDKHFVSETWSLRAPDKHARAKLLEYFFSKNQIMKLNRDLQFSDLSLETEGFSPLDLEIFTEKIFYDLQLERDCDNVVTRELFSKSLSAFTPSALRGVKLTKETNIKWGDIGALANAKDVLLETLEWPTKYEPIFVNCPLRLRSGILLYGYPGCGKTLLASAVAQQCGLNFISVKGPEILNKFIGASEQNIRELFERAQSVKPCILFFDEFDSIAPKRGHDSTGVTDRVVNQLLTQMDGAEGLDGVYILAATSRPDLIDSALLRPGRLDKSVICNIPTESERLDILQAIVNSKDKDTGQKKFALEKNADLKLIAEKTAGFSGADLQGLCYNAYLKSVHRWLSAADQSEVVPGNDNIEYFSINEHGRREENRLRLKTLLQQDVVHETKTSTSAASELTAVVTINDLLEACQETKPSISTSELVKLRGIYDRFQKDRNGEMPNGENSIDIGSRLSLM

In experiment [2] the target is Pex1 with a Walker B mutation in the D2 domain (yeast) (UniProt P24004).
Experiment [3] has the same target. This is another data set of the same source.

Where two headings read alike, the source gives them in different places. Results are given in words; binding and its absence hold for the method and conditions named. Binding calls can cover weak binding; strength is not graded here.

Consider “Pex6 with a Walker B mutation in the D2 domain (from UniProt P33760)”, for which the binding entry in experiment [1] and in experiment [2] was “binds” in each case.

B1: Pex6 (wild type, HisPex6) (natural protein, yeast, UniProt P33760 1-1030, looked up)
chain: MKASLTFSLSGIYAPCSISRDIYLEYGDKKAECLYGTIRLPQYGPGCTPGKIVHCVLDDSLPFCSIVVPSKLFGFMPTQPTMDFCYFEPILDNVVPVLDSVTFLINEQLYSKLMDLPQEMQQIQFLHYKYNINSMETVVHSRDILTSGLCQILNCSPFPQGLVDFTETQLILVNDTEQKLSALKYANEDEEYALPKIGTNSALSIDLESLPCTISRDLLRPAPHINDDNSIYAFTDAETLLRLDVTSGSFITVSNMGCVRLVKLFVLLLPNGFKKRTIYAPPKIIASFPDCSVVTISKSNIGHTDIPIANQVFISRVGGWLQSQKCFQNIILTTLKKFFSESKRILCQNDLIPIAFDSSMADLNIAEENDESDDEDELGQYYKNDSLVWFFVTSAELDCFSKDNSHFIIDPNRTKLITTNITNRRPLPLSRSNLQRYYGFAETFYYDLHIFPYVRQLVNILETSFNCSQRGITLNASVLLHSTTNNVGKATMVRFASKYLGIHLLEIDCLSLTSNSRQLDSTSKIIGYIRAKCENVLPYASPAVIFLAHLDSILLDVNANQDPEAIKLQKSINFEMSKLLDDFTFKFPGTTFVGSVNNIDNVPSSFRSHMRFEILVPVPSEAQRLRIFQWYLSSHELNRDVQQKVPVSYMDNISFSSLSSYSAGLTPLDIKSIVETARMTATARFYQESKKCGWLPQSILITQEDLSKATSKARNEFSVSIGAPQIPNVTWDDIGGIDFVKGEILDTIDMPLKHPELFTSGMKKRSGILFYGPPGTGKTLMAKAIATNFSLNFFSVKGPELLNMYIGESEANVRRVFQKAREAKPCVIFFDEIDSVAPKRGNQGDSGGVMDRIVSQLLAELDGMSTDADGVFVIGATNRPDLLDEALLRPGRFDKLLYLGIPDTDTKQLNILEALTRKFVLDNDVKLIELAKLCPFNYTGADFYALCSDAMLNAMSRIARMVEKKVSQHNELTGENISTRRWFDKIATKEDTKVVVKMEDFLKAQEQLTPSVSRAELNHYEAVRANFEGA
notes: Pex6, yeast, type II AAA+ ATPase; PEX6 amplified from genomic DNA; also called Pex6 of Pex1/6
Consider B1, for which the binding entry in experiment [3] was “binds”.
